Measured values as given in the supplement of paper PMC9578143, “Small-Molecule Ebselen Binds to YTHDF Proteins Interfering with the Recognition of N^6-Methyladenosine-Modified RNAs” (ACS Pharmacology & Translational Science, 2022).
Some of the results follow. Part of the spread comes from offsets between plates or batches.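 Hits were defined as a z-score below −3.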

target: T1, YTHDF1 YTH domain (aa 365-554) (UniProt Q9BYJ9); assay: tryptophan fluorescence intensity z-score (mean); higher = higher fluorescence, less quenching (negative = binding / quenching); conditions: 10 µM
T1 sequence (whole entry): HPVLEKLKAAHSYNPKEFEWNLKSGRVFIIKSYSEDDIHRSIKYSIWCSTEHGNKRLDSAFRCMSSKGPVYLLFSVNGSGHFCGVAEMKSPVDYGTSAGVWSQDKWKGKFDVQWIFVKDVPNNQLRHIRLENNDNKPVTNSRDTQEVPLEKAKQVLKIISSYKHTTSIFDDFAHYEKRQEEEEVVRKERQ

Tryptophan fluorescence intensity z-score, inactive:
Nc1ccc(S(=O)(=O)Nc2ccccn2)cc1 (plate: M 5-6) 0.0508
CC(=O)N[C@@H](C=O)[C@@H](O)[C@H](O)[C@H](O)CO (plate: M 23-24) 0.608
CC(=O)c1c(O)cc(O)cc1O (plate: M 17-18) -0.384
CC(=O)O[C@@H]1CC2C(C)(CC[C@H](O)C2(C)C)C2CC[C@]3(C)C(=CC(=O)O[C@H]3c3ccoc3)C21C (stereo partly drawn) [3beta-HYDROXYDEOXODIHYDRODEOXYGEDUNIN] (plate: M 15-16) 0.103
CC1(C)[C@@H](O)CC[C@]2(C)[C@H]3C(=O)C=C4[C@H]5C[C@@](C)(C(=O)O)CC[C@]5(C)CC[C@@]4(C)[C@]3(C)CC[C@@H]12 [18alpha-GLYCYRRHETINICACID] (plate: M 17-18) 0.646
CCCCN1CCCCC1C(=O)Nc1c(C)cccc1C (centres undefined) (plate: M 9-10) -0.242
CCOC(=O)NNc1nncc2ccccc12 (plate: M 21-22) 0.342
CC(C)(C)c1ccc(C(O)CCCN2CCC(C(O)(c3ccccc3)c3ccccc3)CC2)cc1 (centres undefined) (plate: M 9-10) -0.645
Cc1cc(=O)oc2c(O)c(O)ccc12 (plate: M 17-18) -0.651
CC(COc1ccccc1)NC(C)C(O)c1ccc(O)cc1 (centres undefined) (plate: M 3-4) -0.135
CC12CCCC(O)(C1)C1CC(C)(C)C1CC2 (stereo not drawn) [beta-CARYOPHYLLENEALCOHOL] (plate: M 17-18) 0.477
CC(=O)[C@H]1CC[C@H]2[C@@H]3CC=C4C[C@@H](O)CC[C@]4(C)[C@H]3CC[C@]12C (plate: M 23-24) 0.0957
CN(C)c1ccc(C(=C2C=CC(=[N+](C)C)C=C2)c2ccc(N(C)C)cc2)cc1 (plate: M 3-4) -1.62
O=c1ccn([C@@H]2O[C@H](COP(=O)(O)OP(=O)(O)OP(=O)(O)O)[C@@H](O)[C@H]2O)c(=O)[nH]1 (plate: M 21-22) 0.171
CON (plate: M 23-24) 0.741
CCN(CCO)CCCC(C)Nc1ccnc2cc(Cl)ccc12 (centres undefined) (plate: M 9-10) -0.281
O=C(O)c1ccccc1 (plate: M 7-8) 0.242
O=C(O)c1cccnc1C(=O)O (plate: M 21-22) -0.164
CCOc1ccc(NC(C)=O)cc1 (plate: M 5-6) 0.172
CN1CCC[C@@H]1CCO[C@](C)(c1ccccc1)c1ccc(Cl)cc1 (plate: M 1-2) 0.107
CC(C)(C)NCC(O)c1cc(O)cc(O)c1 (centres undefined) (plate: M 5-6) -0.0435
COc1ccc2c(c1)O[C@@H]1COc3cc(OC)c(OC)cc3[C@@H]1C2=O (plate: M 15-16) 0.0832
CCOC(=O)[N-]c1c[n+](N2CCOCC2)no1 (plate: M 5-6) -0.338
CC[N+](CC)(CC)CCOc1cccc(OCC[N+](CC)(CC)CC)c1OCC[N+](CC)(CC)CC (plate: M 3-4) -0.352
C#C[C@]1(O)CC[C@H]2[C@@H]3CCC4=C(CCC(=O)C4)[C@H]3CC[C@@]21C (plate: M 3-4) 0.201
COc1cc(OC)c(-c2c(OC)cc(OC)cc2OC)c(OC)c1 (plate: M 17-18) 0.127
CCc1oc2ccccc2c1C(=O)c1cc(Br)c(O)c(Br)c1 (plate: M 11-12) -0.706
CC/C(=C(\c1ccccc1)c1ccc(OCCN(C)C)cc1)c1ccccc1 (plate: M 5-6) 0.162
COc1cc2oc3cc(OC)c(OC)c(CC=C(C)C)c3c(=O)c2c(OC)c1CC=C(C)C (plate: M 21-22) -0.11
CN[C@@H]1[C@H](O[C@H]2[C@H](O[C@H]3[C@H](O)[C@@H](O)[C@H](NC(=N)N)[C@@H](O)[C@@H]3NC(=N)N)O[C@@H](C)[C@]2(O)CO)O[C@@H](CO)[C@H](O)[C@H]1O (plate: M 1-2) 0.348
NCc1ccc(S(N)(=O)=O)cc1 (plate: M 3-4) -0.046
O=C(O)C1(C(=O)O)CCC1.[NH2-].[NH2-].[Pt+2] (plate: M 7-8) 0.431
O=c1c(O)c(-c2ccc(O)c(O)c2)oc2cc(O)cc(O)c12 (plate: M 17-18) -0.583
CC1=C(C/C=C(\C)CCC[C@H](C)CCC[C@H](C)CCCC(C)C)C(=O)c2ccccc2C1=O (plate: M 13-14) 0.435
COCCc1ccc(OCC(O)CNC(C)C)cc1 (centres undefined) (plate: M 3-4) 0.0503
COc1ccc(C(=O)c2ccccc2O)c(O)c1 (plate: M 1-2) -0.569
CC(C)Cc1ccc(C(C)C(=O)O)cc1 (centres undefined) (plate: M 3-4) 0.0328
COC1=CC(=O)C=C(OC)C1=O (plate: M 15-16) 0.111
CC(O)(P(=O)(O)O)P(=O)(O)O (plate: M 11-12) 0.288
CC(=O)O[C@H]1C[C@@H](OC(C)=O)C(C)(C)[C@@H]2C[C@@H](OC(C)=O)[C@@]3(C)C4=CC(=O)O[C@@H](c5ccoc5)[C@]4(C)CC[C@@H]3[C@@]12C (plate: M 13-14) 0.339
O=C1[C@H](CC[C@H](O)c2ccc(F)cc2)[C@@H](c2ccc(O)cc2)N1c1ccc(F)cc1 (plate: M 9-10) 0.0819
Cc1cnc(C(=O)NCCc2ccc(S(=O)(=O)NC(=O)NC3CCCCC3)cc2)cn1 (plate: M 11-12) -0.72
C=C1C2CC[C@@]3(C)[C@H](c4ccoc4)OC(=O)C[C@]13O[C@H]1CC(=O)C(C)(C)[C@H](C(O)C(=O)OC)[C@@]21C (some centres undefined) (plate: M 13-14) 0.805
CCc1ccc2c(O)c3c(cc2c1C(=O)OC)C(=O)c1c(O)ccc(O)c1C3=O (plate: M 15-16) 0.528

Reprinted at random: 3 records from the list, in no set order.
Tryptophan fluorescence intensity z-score, inactive:
O=C(O)c1cccnc1C(=O)O (plate: M 21-22) -0.164
CC/C(=C(\c1ccccc1)c1ccc(OCCN(C)C)cc1)c1ccccc1 (plate: M 5-6) 0.162
O=c1ccn([C@@H]2O[C@H](COP(=O)(O)OP(=O)(O)OP(=O)(O)O)[C@@H](O)[C@H]2O)c(=O)[nH]1 (plate: M 21-22) 0.171
